No constants are given. Whether binding was seen depends on the method and setting. Some binding calls cover weakened binding; strength is not graded here.
Biological target: T1, mouse TMEM16A (ac splice variant), wild type (mouse), Q8BHY3
T1 chain: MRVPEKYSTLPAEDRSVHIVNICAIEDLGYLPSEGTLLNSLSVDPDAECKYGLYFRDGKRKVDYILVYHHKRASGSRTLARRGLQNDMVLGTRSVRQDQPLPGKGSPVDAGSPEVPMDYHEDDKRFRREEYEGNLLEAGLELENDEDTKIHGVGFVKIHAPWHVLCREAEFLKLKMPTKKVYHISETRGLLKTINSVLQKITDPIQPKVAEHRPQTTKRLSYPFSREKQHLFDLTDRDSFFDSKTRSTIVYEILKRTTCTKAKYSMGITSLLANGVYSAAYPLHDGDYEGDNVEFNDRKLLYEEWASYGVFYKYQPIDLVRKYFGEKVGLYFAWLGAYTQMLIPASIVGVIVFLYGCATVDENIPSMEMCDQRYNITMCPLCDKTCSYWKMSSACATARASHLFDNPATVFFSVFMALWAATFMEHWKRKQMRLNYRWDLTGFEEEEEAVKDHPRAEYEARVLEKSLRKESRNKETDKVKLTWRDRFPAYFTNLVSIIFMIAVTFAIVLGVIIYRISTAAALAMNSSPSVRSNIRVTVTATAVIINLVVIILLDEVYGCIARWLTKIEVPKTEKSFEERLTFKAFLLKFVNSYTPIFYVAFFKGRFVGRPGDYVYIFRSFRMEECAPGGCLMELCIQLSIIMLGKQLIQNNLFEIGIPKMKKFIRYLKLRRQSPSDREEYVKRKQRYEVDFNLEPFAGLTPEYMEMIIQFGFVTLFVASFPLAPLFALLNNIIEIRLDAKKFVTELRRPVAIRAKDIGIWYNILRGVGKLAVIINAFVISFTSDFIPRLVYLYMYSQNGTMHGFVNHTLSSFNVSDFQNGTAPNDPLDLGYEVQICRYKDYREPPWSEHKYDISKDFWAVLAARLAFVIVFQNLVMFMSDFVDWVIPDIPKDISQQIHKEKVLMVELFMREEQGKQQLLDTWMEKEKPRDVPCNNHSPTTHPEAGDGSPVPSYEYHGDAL
Assay: cryo-EM structure; purified protein in GDN, pre-incubated with 100 µM 1PBC and 1 mM free Ca2+ at 4 °C; non-coated and graphene oxide-coated grids; C2 symmetry applied; 2.85 Å; both purified
Conditions: remark: other sources report otherwise

binding: binds
B1: mouse TMEM16A (ac splice variant), wild type, Q8BHY3 1-960 (protein)
chain: T1 chain
